# Measured values taken from PubChem BioAssay AID504648 (National Center for Advancing Translational Sciences (NCATS), 2011).
# The whole screen tested about 390,000 compounds, of which about 610 (0.16%) were called active. This list was built around the results that the source calls inconclusive (neither active nor inactive); the mix of calls is not that of the screen. Calls come from the whole dose curve; as a rule, active = well fitted inhibition curve with a large enough effect; inconclusive = small, poorly fitted or top-dose-only effect, or effect the other way, or another doubt; inactive = no such curve, though single readings can be large or run the other way. Where the call is inconclusive, the potency comes from a doubtful curve fit.
# Assay: Nrf2 qHTS screen for inhibitors: counterscreen for cytotoxicity
# Details: A549 ARE-Fluc cells, CellTiter-Fluor viability, 18-24 h; activity change, negative = cytotoxicity: at 46 µM (top of the series)
# Outline: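 Cytotoxicity counterscreen: CellTiter-Fluor fluorescence was measured in A549 ARE_Fluc cells after 18-24 h of compound exposure in a concentration series. The subsequent BugLite luminescent read reports ARE-luciferase activity.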
# % is set by controls: 0 for no effect and ±100 for the full control effect; potency is the fitted concentration of half-maximal effect.
Structure (SMILES),Potency,"activity change, negative = cytotoxicity"
CCOc1ccc(NCC(=O)c2ccc(C)cc2)cc1,"inconclusive: 29.1 µM [falling, single point]",–
Cc1cccc(C)c1Nc1sc(C(=O)c2ccccc2)c(N)c1C(=O)Nc1ccc(F)cc1,–,inactive: -11.6%
COc1ccc(C(=O)/C=C/C(=O)N(CC(=O)NC2CCCCC2)Cc2cccs2)c(O)c1,"inconclusive: 25.9 µM [falling, single point]",–
CC(C)(C)c1ccc(/C=C/C(=O)N2CCCCC2)cc1,"inconclusive: 14.6 µM [activator, partial curve, poor fit]",–
COC(=O)c1cc(C(=O)NCc2ccc3c(c2)OCO3)cc([N+](=O)[O-])c1,–,inactive: 1.24%
Cc1ccc(/C=C/c2ccc(N(C)C)cc2)[n+](C)c1,active: 10.3 µM,–
CCC(C(=O)OCC(=O)Nc1ccc(Cl)c(S(=O)(=O)N(C)C)c1)c1ccccc1 (stereo not drawn),"inconclusive: 23.1 µM [falling, single point]",–
CC(C)C[C@H](NC(=O)[C@@H](Cc1ccccc1)n1c(=O)[nH]c2ccccc2c1=O)C(=O)N[C@@H](Cc1ccccc1)C(=O)O,–,inactive: 6.55%
COc1cccc(C(=O)N2c3cc(C)ccc3C(C)(c3ccccc3)CC2(C)C)c1 (stereo not drawn),"inconclusive: 23.1 µM [activator, partial curve, poor fit]",–
CSc1nc(-c2ccccc2)nc(C(Cl)Cl)n1,"inconclusive: 25.9 µM [falling, single point]",–
CC(=O)c1sc2c(c1OC(=O)c1ccccc1)c(=O)n(-c1ccccc1)c(=S)n2-c1ccccc1,–,inactive: -8.58%
COc1ccc(NC(=O)CSc2ncccc2C(=O)O)cc1OC,–,inactive: 6.82%
CCN(CC)C(=S)SCC(=O)Nc1ncc2c(n1)CCCC2=O,"inconclusive: 29.1 µM [falling, single point]",–
CC(C)(C)NC(=O)CSc1nc2ccc(NC(=O)CSc3nnnn3Cc3ccccc3)cc2s1,–,inactive: -15.9%
Cc1cccnc1NC(=O)c1cccc(S(=O)(=O)N2CCN(c3ccccc3)CC2)c1,–,inactive: 0.76%
CCc1cccc(NC(=O)CCCCCC2NC(=O)NC2C)c1 (stereo not drawn),"inconclusive: 23.1 µM [falling, single point]",–
CC(C)Sc1nc2c(c(=O)[nH]c(=O)n2C)n1Cc1ccccc1,"inconclusive: 5.8 µM [activator, partial curve, poor fit]",–
CCC(CC)NC(=O)/C=C/c1ccccc1Cl,"inconclusive: 11.6 µM [activator, partial curve, poor fit]",–
CCOc1cccc(CC(=O)N2CCc3c([nH]c4ccccc34)C2c2ccccc2)c1OCC (stereo not drawn),"inconclusive: 20.6 µM [falling, partial curve, poor fit]",–
O=C(Nc1ccc(N2CCN(C(=O)c3ccco3)CC2)cc1)c1ccccc1Br,"inconclusive: 14.6 µM [falling, partial curve, poor fit]",–
CCn1c(-c2ccc(F)cc2)n[nH]c1=S,"inconclusive: 8.2 µM [activator, partial curve, poor fit]",–

# Record cards, from the list above. Values in the order: Potency | activity change, negative = cytotoxicity
# CCC(C(=O)OCC(=O)Nc1ccc(Cl)c(S(=O)(=O)N(C)C)c1)c1ccccc1 (stereo not drawn) in the list: inconclusive: 23.1 µM [falling, single point] | –
# O=C(Nc1ccc(N2CCN(C(=O)c3ccco3)CC2)cc1)c1ccccc1Br in the list: inconclusive: 14.6 µM [falling, partial curve, poor fit] | –
# CCOc1ccc(NCC(=O)c2ccc(C)cc2)cc1 in the list: inconclusive: 29.1 µM [falling, single point] | –
# COc1ccc(NC(=O)CSc2ncccc2C(=O)O)cc1OC in the list: – | inactive: 6.82%

# (next part)

Structure (SMILES),Potency,"activity change, negative = cytotoxicity"
COc1ccc(C(=O)O/N=C(\N)Cc2ccc(Cl)cc2Cl)cc1OC,"inconclusive: 29.1 µM [falling, single point]",–
O=C(N=c1ccn(-c2nc3ccccc3nc2NS(=O)(=O)c2ccc(Cl)cc2)cc1)c1cccs1,"inconclusive: 29.1 µM [activator, partial curve, poor fit]",–
O=C(COC(=O)CCNS(=O)(=O)c1ccccc1)NC1CC1,"inconclusive: 6.51 µM [activator, partial curve, poor fit]",–
CC(C)C[C@H](NC(=O)c1nc[nH]c1C(=O)NCCCCCNC(=O)OC(C)(C)C)C(=O)OC(C)(C)C,"inconclusive: 29.1 µM [falling, single point]",–
Nc1nc(N)c2nc(-c3ccccc3)c(N)nc2n1,"inconclusive: 29.1 µM [activator, partial curve, poor fit]",–
Cc1cc2nn(-c3ccc(F)cc3)nc2cc1NC(=O)c1cccc2ccccc12,–,inactive: -7.19%
O=C(Nc1ccc2oc(-c3cccnc3)nc2c1)c1ccc(-c2ccc(OC(F)(F)F)cc2)o1,–,inactive: 1.26%
CCN(CC)S(=O)(=O)c1ccc2c(c1)nc(CCC(=O)Nc1cccc(C(F)(F)F)c1)n2CC,"inconclusive: 23.1 µM [falling, single point]",–
COc1ccc(Cn2c(=N)c(C(=O)NC3CCCCC3)cc3c(=O)n4ccccc4nc32)cc1,"inconclusive: 23.1 µM [falling, single point]",–
Cc1cc(C)c2c(CC(=O)O)c(C)[nH]c2c1,–,inactive: 1.86%
NC(=O)CC(NC(=O)Cc1cccc2ccccc12)c1ccc(NC2CCCCCC2)c([N+](=O)[O-])c1 (stereo not drawn),"inconclusive: 32.6 µM [falling, partial curve, poor fit]",–
N#Cc1nc(Nc2cccc(Br)c2)nc(NC2CCCC2)n1,"inconclusive: 23.1 µM [falling, single point]",–
CC(C)CCN1C(=O)c2cccc3c(N)ccc(c23)C1=O,"inconclusive: 18.4 µM [activator, partial curve]",–
Cc1ccc(-n2c(N)c(C(=O)Nc3c(C)n(C)n(-c4ccccc4)c3=O)c3nc4ccccc4nc32)cc1,"inconclusive: 20.6 µM [falling, single point]",–
Clc1ccc(OCc2nnc(SCc3nc4ccccc4[nH]3)n2Cc2ccco2)cc1,"inconclusive: 32.6 µM [falling, single point]",–
Cc1ccc(NC(=S)N2CCC(c3nc4ccccc4s3)CC2)cc1C,"inconclusive: 29.1 µM [falling, single point]",–
C=CCC[C@H](Cc1ccc(F)cc1)C(=O)OC[C@@H](NC(=O)[C@@H](CC=C)CC(=O)N[C@@H](CO)Cc1ccccc1)C(C)(C)C,"inconclusive: 18.4 µM [falling, single point]",–
CCc1[nH]c(=O)c(C#N)c2c1COC(C)(C)C2,–,inactive: 8.37%
CCn1c(=O)[nH]c2ccccc2c1=O,–,inactive: 2.04%
Cc1onc(-c2c(F)cccc2Cl)c1C(=O)Nc1cc(S(=O)(=O)N2CCCCC2)ccc1O,"inconclusive: 23.1 µM [falling, single point]",–
C=CCC[C@H](Cc1ccc(F)cc1)C(=O)OC[C@H](C)NC(=O)[C@H](CC=C)CC(=O)N(CCO)Cc1ccccc1,"inconclusive: 29.1 µM [falling, single point]",–

Structure (SMILES),Potency,"activity change, negative = cytotoxicity"
CCN(CC)c1ccc(/C=C/c2cc(-c3ccccc3)c3ccccc3n2)cc1,"inconclusive: 5.8 µM [activator, full curve, poor fit]",–
CC(C)Cc1ccc(C(=O)NCc2ccc3c(c2)OCO3)o1,"inconclusive: 25.9 µM [activator, partial curve, poor fit]",–
CCOC(=O)c1ccc(NC(=O)C(Cc2ccccc2)NS(=O)(=O)c2ccc(Br)s2)cc1 (stereo not drawn),–,inactive: 1.67%
CCCOc1cccc(-c2cc(-c3n[nH]c(=S)n3CC)c3ccccc3n2)c1,"inconclusive: 29.1 µM [falling, single point]",–
O=C1CN(Cc2ccccc2)S(=O)(=O)c2ccccc21,–,inactive: -6.44%
O=[N+]([O-])c1ccc(C=NNc2ccc(S(=O)(=O)O)cc2)cc1,"inconclusive: 16.4 µM [falling, single point]",–
CCC(Oc1ccccc1)C(=O)Nc1ncc([N+](=O)[O-])s1 (stereo not drawn),"inconclusive: 18.4 µM [falling, partial curve, poor fit]",–
CCOC(=O)c1c(NC(=O)COC(=O)Cn2cnc3c2c(=O)n(C)c(=O)n3C)sc(C)c1CC,"inconclusive: 7.31 µM [activator, partial curve, poor fit]",–
COc1cccc(N=C2SC(C(=O)Nc3ccc(F)cc3)CC(=O)N2C)c1 (stereo not drawn),"inconclusive: 20.6 µM [falling, single point]",–
CCCC(=O)NC(c1ccc(OC)cc1)c1ccc2cccnc2c1O (stereo not drawn),"inconclusive: 29.1 µM [falling, partial curve, poor fit]",–
COc1ccc(CC(=O)Nc2c3c(nn2-c2ccccc2C)CS(=O)C3)cc1 (stereo not drawn),"inconclusive: 20.6 µM [activator, partial curve, poor fit]",–
O=c1c2ccccc2oc2cc(C#CC3(O)CCCCC3)ccc12,–,inactive: -13.5%
O=C(NCC1CCCC(CNC(=O)Nc2ccc(Cl)cn2)C1)Nc1ccc(Cl)cn1 (stereo not drawn),"inconclusive: 23.1 µM [falling, single point]",–
Cc1c(C(=O)Nc2nonc2-c2ccc(F)cc2)oc2ccc(F)cc12,"inconclusive: 20.6 µM [falling, single point]",–
Cc1ccc(/C=C2\SC(=S)N(CCCC(=O)Nc3ccccn3)C2=O)cc1,"inconclusive: 16.4 µM [falling, partial curve, poor fit]",–
COc1cc(NC(=O)c2ccccc2NS(=O)(=O)c2ccc(Cl)s2)cc(OC)c1,"inconclusive: 20.6 µM [falling, single point]",–
CCc1ccc(NC(=O)Cn2c(=O)n(CCC(=O)NCc3ccc4c(c3)OCO4)c(=O)c3ccccc32)cc1,–,inactive: -0.967%
CCC1CN(C(=O)Nc2cc(C)cc(C)c2)c2ccccc2O1 (stereo not drawn),"inconclusive: 29.1 µM [falling, partial curve, poor fit]",–
CCN(CC)C(=O)[C@H]1CC(CC(=O)NC/C=C(\C)CCC=C(C)C)C(=O)N2CCc3c([nH]c4ccc(OC)cc34)[C@]12C (stereo partly drawn),"inconclusive: 29.1 µM [falling, single point]",–
c1ccc2nc(NN=C3CCCCC3)ccc2c1,"inconclusive: 18.4 µM [falling, partial curve, poor fit]",–
Cc1ccc(CNC(=O)CN2C(=O)C3CCCCN3c3ccc(C(=O)N4CCCC4)cc32)cc1 (stereo not drawn),–,inactive: 3.6%
